For experiment [1], the target named is FLAG-tagged JNK2 (pcDNA3 FLAG JNK2a2) (UniProt P45984). As to the kind of experiment: co-IP; HEK293 cells co-transfected with p66Shc-HA-His and FLAG-JNK1a1 or FLAG-JNK2a2; NP-40 lysis buffer; immunoprecipitation 3 h with anti-FLAG M2 affinity gel; p66Shc detected with anti-HA; cells untreated or stressed with H2O2 (1 mM, 15 min) or hypoxia 8 h.
Experiment [2] deals with FLAG-tagged JNK1 (pcDNA3 FLAG JNK1a1) (UniProt P45983). Described as above.

Amino acid sequences for entries named in this document (tags omitted). A change or cut given only in a name is not applied to a line headed by its entry. Chains listed by the source or under a name are the forms on record and can include a tag or linker.
FLAG-tagged JNK1 (pcDNA3 FLAG JNK1a1) (P45983, form named): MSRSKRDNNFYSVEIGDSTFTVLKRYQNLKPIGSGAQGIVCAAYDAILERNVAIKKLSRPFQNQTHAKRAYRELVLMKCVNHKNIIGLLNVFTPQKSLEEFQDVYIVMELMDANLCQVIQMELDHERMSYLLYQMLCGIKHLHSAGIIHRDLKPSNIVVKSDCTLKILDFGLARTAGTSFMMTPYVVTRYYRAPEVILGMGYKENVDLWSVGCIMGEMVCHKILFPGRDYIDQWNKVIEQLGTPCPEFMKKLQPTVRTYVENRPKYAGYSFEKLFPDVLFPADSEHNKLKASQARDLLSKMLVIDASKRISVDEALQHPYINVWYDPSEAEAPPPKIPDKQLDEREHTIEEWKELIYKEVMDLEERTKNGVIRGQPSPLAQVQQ

Consider 1 molecule from article PMC4751440.

These are yes or no findings as the source states them, for the method shown. Binding seen in cells or lysates may run through a third protein. Some binding calls cover weakened binding; strength is not graded here. Where a sequence is shown, tags or fusion partners need not be part of it.

B1: HA-tagged p66Shc (pRec_p66Shc-HA-His) (protein, UniProt P29353-1 1-583)
chain: MDLLPPKPKYNPLRNESLSSLEEGASGSTPPEELPSPSASSLGPILPPLPGDDSPTTLCSFFPRMSNLRLANPAGGRPGSKGEPGRAADDGEGIVGAAMPDSGPLPLLQDMNKLSGGGGRRTRVEGGQLGGEEWTRHGSFVNKPTRGWLHPNDKVMGPGVSYLVRYMGCVEVLQSMRALDFNTRTQVTREAISLVCEAVPGAKGATRRRKPCSRPLSSILGRSNLKFAGMPITLTVSTSSLNLMAADCKQIIANHHMQSISFASGGDPDTAEYVAYVAKDPVNQRACHILECPEGLAQDVISTIGQAFELRFKQYLRNPPKLVTPHDRMAGFDGSAWDEEEEEPPDHQYYNDFPGKEPPLGGVVDMRLREGAAPGAARPTAPNAQTPSHLGATLPVGQPVGGDPEVRKQMPPPPPCPGRELFDDPSYVNVQNLDKARQAVGGAGPPNPAINGSAPRDLFDMKPFEDALRVPPPPQSVSMAEQLRGEPWFHGKLSRREAEALLQLNGDFLVRESTTTPGQYVLTGLQSGQPKHLLLVDPEGVVRTKDHRFESVSHLISYHMDNHLPIISAGSELCLQQPVERKL
Take B1: the binding result in experiment [1] and in experiment [2] was “binds” in each case.
